Assay results taken from PubChem BioAssay AID651595 (National Center for Advancing Translational Sciences (NCATS), 2012).
Out of some 1,100 compounds screened, fewer than 10 were called active. Inconclusive results (about 6%) are left out. Calls follow the shape of the dose curve; as a rule, active = well fitted cell-killing curve with a large enough effect; inconclusive = small, poorly fitted or top-dose-only effect; inactive = flat fitted curve, though single readings scatter. The list shows a part of the results.

test: qHTS of Nrf2 Activators: Hit Validation in Cytotox Assay; conditions: Cell viability counter-screen for Nrf2 activator hits; series mostly up to 46.1 µM; activity change, negative = cytotoxicity: at the top concentration;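 also: compound exposure lasted 24 hours before the ATP readout; 0% is about no effect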
Procedure, shortened: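 Intracellular ATP measured with CellTiter-Glo luminescence (30 min, room temperature) as a viability read-out. Cells: AREc32_fluc, cultured overnight before 24 h compound exposure at 7 concentrations, 37 °C; activity here marks cytotoxicity.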

Question: With `Fc1cccc(Nc2nc3ccccc3n3cnnc23)c1` as the molecule, how does the “activity change, negative = cytotoxicity” value read?
Answer: inactive: 2.44%

Question: With `O=C(/C=C/c1ccco1)Nc1cccnc1Cl` as the molecule, how does the “activity change, negative = cytotoxicity” value read?
Answer: inactive: -10.5%

Question: For `COC(=O)CSc1nc2ccccn2c(=O)c1C=O`, which “activity change, negative = cytotoxicity” value is on record?
Answer: inactive: 8.53%

Question: With `Cc1cccc2c(=O)n(C(=O)c3ccccc3)c(N)nc12` as the molecule, how does the “activity change, negative = cytotoxicity” value read?
Answer: inactive: -2.75%

Question: Which “activity change, negative = cytotoxicity” value does the source give for `O=Cc1c(NCc2ccco2)nc2ccccn2c1=O` here?
Answer: inactive: 7.6%

Question: For `CC(=O)Nc1ccc2nc(NC(=O)c3ccco3)sc2c1`, which “activity change, negative = cytotoxicity” value is on record?
Answer: inactive: -23.1%

Question: For `COc1cc2c(cc1Cl)/C(=C\CCN(C)C)c1ccccc1S2`, which “activity change, negative = cytotoxicity” value is on record?
Answer: inactive: -16.9%

Question: With `O=C(CSc1nc2c(sc3ccccc32)c(=O)n1-c1ccccc1)NCc1ccco1` as the molecule, how does the “activity change, negative = cytotoxicity” value read?
Answer: inactive: 2.64%

Question: With `Cc1ccc(C(=O)N/N=C/c2ccc(-c3ccc(Br)cc3[N+](=O)[O-])o2)o1` as the molecule, how does the “activity change, negative = cytotoxicity” value read?
Answer: inactive: 0.605%

Question: With `COc1ccc(Cc2c(-c3ccccc3)nc3c4ccccc4ccn23)c(C)c1` as the molecule, how does the “activity change, negative = cytotoxicity” value read?
Answer: inactive: -9.88%

Question: Which “activity change, negative = cytotoxicity” value does the source give for `N/C(=N\OC(=O)c1ccco1)c1cccc(Br)c1` here?
Answer: inactive: 3.8%

Question: With `C=CCn1c(=NC(=O)c2cc(Cl)sc2Cl)sc2cc(S(N)(=O)=O)ccc21` as the molecule, how does the “activity change, negative = cytotoxicity” value read?
Answer: inactive: -1.89%

Question: With `CC(=O)Cn1nnc2sc(-c3ccccc3)cc2c1=O` as the molecule, how does the Potency read?
Answer: inactive

Question: Which “activity change, negative = cytotoxicity” value does the source give for `O=[N+]([O-])c1ccccc1/C=N/Nc1nccnc1Cl` here?
Answer: inactive: -2.15%

Question: Which “activity change, negative = cytotoxicity” value does the source give for `O=C(c1ccco1)c1cn(CC(=O)N2CCCc3ccccc32)c2ccccc12` here?
Answer: inactive: -12%

Question: For `COc1cc2c(c(Br)c1N)-c1cc(Br)c(N)cc1C2=O`, which “activity change, negative = cytotoxicity” value is on record?
Answer: inactive: 6.97%

Question: With `Cc1ccc(OCC(=O)Nc2cccc3ccccc23)c([N+](=O)[O-])n1` as the molecule, how does the “activity change, negative = cytotoxicity” value read?
Answer: inactive: -0.354%

Question: With `c1ccc(Cn2ncc3c(NCc4ccco4)ncnc32)cc1` as the molecule, how does the “activity change, negative = cytotoxicity” value read?
Answer: inactive: -5.44%

Question: With `COc1cccc(C(=O)Nc2cc(C)c3c(=O)oc4ccccc4c3n2)c1` as the molecule, how does the “activity change, negative = cytotoxicity” value read?
Answer: inactive: 6.12%

Question: With `O=C(N/N=C\c1ccc(Cl)cc1)c1sccc1-n1cccc1` as the molecule, how does the “activity change, negative = cytotoxicity” value read?
Answer: inactive: 4.12%

Question: With `Cc1csc(NC(=O)/C=C/c2ccco2)n1` as the molecule, how does the “activity change, negative = cytotoxicity” value read?
Answer: inactive: 6.19%

Question: Which “activity change, negative = cytotoxicity” value does the source give for `Cc1csc(NC(=O)c2cc(-c3ccco3)nc3ccccc23)n1` here?
Answer: inactive: 0.0095%

Question: With `C/C(=N\NC(=O)c1cccc(S(=O)(=O)N2CCCC2)c1)c1ccco1` as the molecule, how does the “activity change, negative = cytotoxicity” value read?
Answer: inactive: -5.03%

Question: For `O=C1/C(=C\c2ccc(Cl)cc2)CCC1CNc1ccc(Cl)cc1` (configuration not stated), which “activity change, negative = cytotoxicity” value is on record?
Answer: inactive: 0.701%

Question: For `O=C(/C(C=Nc1cccc(C(F)(F)F)c1)=C(/O)c1ccco1)C(F)(F)F`, which “activity change, negative = cytotoxicity” value is on record?
Answer: inactive: -1.02%

Question: For `Cc1ccsc1-c1ccnc(-n2cccc2)n1`, which “activity change, negative = cytotoxicity” value is on record?
Answer: inactive: 4.55%

Question: With `Cc1cc(NC(=O)c2ccccc2F)nc2c1c(=O)oc1ccccc12` as the molecule, how does the “activity change, negative = cytotoxicity” value read?
Answer: inactive: -0.116%

Question: For `S=c1[nH]nc(COc2ccccc2)n1/N=C/C(Cl)=C/c1ccccc1`, which “activity change, negative = cytotoxicity” value is on record?
Answer: inactive: 4.04%

Question: Which “activity change, negative = cytotoxicity” value does the source give for `O=C(CC(=O)c1ccccn1)c1ccccc1` here?
Answer: inactive: -28.7%

Question: For `O=C(C=Cc1ccccc1Cl)c1ccccc1`, which “activity change, negative = cytotoxicity” value is on record?
Answer: inactive: -10.9%

Question: Which “activity change, negative = cytotoxicity” value does the source give for `CN(C)CCN(C(=O)/C=C/c1cccs1)c1nc2c(F)cc(F)cc2s1` here?
Answer: inactive: -18.2%

Question: For `O=C(CSc1nnc(-c2cccnc2)o1)c1cc2ccccc2oc1=O`, which “activity change, negative = cytotoxicity” value is on record?
Answer: inactive: 0.11%

Question: For `O=C(N/N=C/c1ccco1)Nc1ccccc1`, which “activity change, negative = cytotoxicity” value is on record?
Answer: inactive: 4.52%

Question: With `O=C1Nc2ccccc2SC1=Cc1ccccc1` as the molecule, how does the “activity change, negative = cytotoxicity” value read?
Answer: inactive: 1.37%

Question: Which “activity change, negative = cytotoxicity” value does the source give for `O=C(/C=C\c1ccc2c(c1)OCO2)CC1(O)C(=O)Nc2ccccc21` (configuration not stated) here?
Answer: inactive: 9.16%

Question: Which “activity change, negative = cytotoxicity” value does the source give for `Cc1cc(N/N=C/c2c(O)ccc3ccccc23)nc(-c2ccccc2O)n1` here?
Answer: inactive: -27%

Question: With `COc1cc(OC)c(OC)cc1/C=C1/Cc2ccccc2C1=O` as the molecule, how does the “activity change, negative = cytotoxicity” value read?
Answer: inactive: -2.08%

Question: Which “activity change, negative = cytotoxicity” value does the source give for `O=C(Nc1cccc(/C=C/c2ccccn2)c1)c1ccc(-n2cncn2)cc1` here?
Answer: inactive: 8.24%

Question: For `Cc1ccc(C)c(NC(=S)c2nc3ccccc3s2)c1`, which “activity change, negative = cytotoxicity” value is on record?
Answer: inactive: -4.35%

Question: Which “activity change, negative = cytotoxicity” value does the source give for `COC(=O)c1c(NC(=O)c2ccco2)sc(C)c1C` here?
Answer: inactive: 8.04%

Question: With `COc1ccc(NC(=O)C2CC(=O)N/C(=N/N=C/c3ccco3)S2)cc1` (configuration not stated) as the molecule, how does the “activity change, negative = cytotoxicity” value read?
Answer: inactive: 3.28%

Question: For `O=c1oc2ccccc2nc1/C=C(\O)c1ccc(Br)cc1`, which “activity change, negative = cytotoxicity” value is on record?
Answer: inactive: -1.91%

Question: Which “activity change, negative = cytotoxicity” value does the source give for `COC(=O)c1sccc1NC(=O)c1ccc(Br)o1` here?
Answer: inactive: 5.03%

Question: For `Clc1ccc(-c2nnc(-c3cccc4ccccc34)o2)cc1`, which “activity change, negative = cytotoxicity” value is on record?
Answer: inactive: 4.92%

Question: Which “activity change, negative = cytotoxicity” value does the source give for `COc1ccc(-c2nnc3c4ccccc4c(C)nn23)cc1` here?
Answer: inactive: 4.5%

Question: With `COc1ccccc1Cc1c(-c2ccco2)nc2ccc(Cl)cn12` as the molecule, how does the “activity change, negative = cytotoxicity” value read?
Answer: inactive: -12.6%

Question: Which “activity change, negative = cytotoxicity” value does the source give for `COc1ccccc1C(=O)NCc1nc2cccnc2n1Cc1ccc(F)cc1` here?
Answer: inactive: 12.8%

Question: With `CNc1ccc(Br)cc(C(=O)/C=C/c2cccc(OC)c2)c1=O` as the molecule, how does the “activity change, negative = cytotoxicity” value read?
Answer: inactive: 7.9%

Question: With `CC(=NNC(=O)CSc1nc2ccccc2o1)c1ccco1` as the molecule, how does the “activity change, negative = cytotoxicity” value read?
Answer: inactive: -0.611%

Question: With `CCCc1cc(C(N)=O)c(NC(=O)c2ccco2)s1` as the molecule, how does the “activity change, negative = cytotoxicity” value read?
Answer: inactive: -1.86%

Question: For `N#Cc1c(-c2ccco2)cc(-c2ccccn2)nc1N`, which “activity change, negative = cytotoxicity” value is on record?
Answer: inactive: -0.246%

Question: For `O=C(/C=C/c1ccccc1Cl)Nc1nc(-c2cccs2)ns1`, which “activity change, negative = cytotoxicity” value is on record?
Answer: inactive: -0.488%

Question: Which “activity change, negative = cytotoxicity” value does the source give for `O=C(Nc1ccccc1C(=O)N/N=C/c1ccco1)c1ccccc1` here?
Answer: inactive: -18.2%

Question: For `FC(F)(F)c1cc(-c2cccs2)nc2cc(-c3cccs3)nn12`, which “activity change, negative = cytotoxicity” value is on record?
Answer: inactive: -1.01%

Question: Which “activity change, negative = cytotoxicity” value does the source give for `Cc1nnc(NC(=O)/C=C/c2ccco2)s1` here?
Answer: inactive: 3.4%

Question: For `Cc1cccc(C)c1NC(=S)NC(=O)c1cccc(Cl)c1`, which “activity change, negative = cytotoxicity” value is on record?
Answer: inactive: 10.1%

Question: With `Cc1sc(NC(=S)NC(=O)c2ccco2)c(C(N)=O)c1C` as the molecule, how does the “activity change, negative = cytotoxicity” value read?
Answer: inactive: 3.75%

Question: For `CCOC(=O)Cc1csc(NC(=O)/C=C/c2ccco2)n1`, which “activity change, negative = cytotoxicity” value is on record?
Answer: inactive: 0.943%

Question: For `Cc1nn(C)c(C)c1/C=C(/C(=O)C(C)(C)C)n1cncn1`, which “activity change, negative = cytotoxicity” value is on record?
Answer: inactive: -1.24%

Question: Which “activity change, negative = cytotoxicity” value does the source give for `O=C(CSc1ncnc2sc3c(c12)CCCC3)c1ccco1` here?
Answer: inactive: -11.2%

Question: For `COc1cc2c(cc1NC(=O)c1cccc(F)c1)CCCC2`, which “activity change, negative = cytotoxicity” value is on record?
Answer: inactive: -2.03%

Question: Which “activity change, negative = cytotoxicity” value does the source give for `O=Cc1c(Sc2ccccn2)nc2ccccn2c1=O` here?
Answer: inactive: 9.74%

Question: Which “activity change, negative = cytotoxicity” value does the source give for `S=c1[nH]nc(-c2ccccc2)n1/N=C/C=C/c1ccco1` here?
Answer: inactive: 3.5%

Question: With `CCc1nc(N)c(C#N)c(-c2ccco2)c1C` as the molecule, how does the “activity change, negative = cytotoxicity” value read?
Answer: inactive: -1.86%

Question: With `CC(C)Oc1ccccc1/C=N/Nc1ccccc1[N+](=O)[O-]` as the molecule, how does the “activity change, negative = cytotoxicity” value read?
Answer: inactive: 2.18%

Question: Which “activity change, negative = cytotoxicity” value does the source give for `O=C(N/N=C\C=C\c1ccco1)c1cc(-c2ccc3ccccc3c2)n[nH]1` here?
Answer: inactive: 12.2%

Question: With `Cn1c(SCC(=O)N/N=C/C=C\c2ccco2)nc2ccccc21` as the molecule, how does the “activity change, negative = cytotoxicity” value read?
Answer: inactive: 2.39%

Question: Which “activity change, negative = cytotoxicity” value does the source give for `CSc1nsc(SC)c1C(=O)Nc1ccc(Cl)cc1` here?
Answer: inactive: -0.834%

Question: For `O=[N+]([O-])c1cc(-c2nc(-c3ccccc3)no2)ccc1NCc1cccnc1`, which “activity change, negative = cytotoxicity” value is on record?
Answer: inactive: -22.6%

Question: Which Potency does the source give for `C[n+]1c2n(c3ccccc31)N=C(c1ccccc1)CS2` here?
Answer: inactive

Question: With `N#Cc1c(-c2ccco2)cc(-c2ccc(F)cc2)nc1N` as the molecule, how does the “activity change, negative = cytotoxicity” value read?
Answer: inactive: 8.67%

Question: For `Cc1ccc([N+](=O)[O-])cc1NC(=O)c1ccc(C(C)(C)C)cc1`, which “activity change, negative = cytotoxicity” value is on record?
Answer: inactive: -1.77%

Question: For `Clc1ccccc1NN=Cc1ccccn1`, which “activity change, negative = cytotoxicity” value is on record?
Answer: inactive: 1.21%

Question: With `Oc1ccccc1-c1csc(-c2ccccc2)n1` as the molecule, how does the “activity change, negative = cytotoxicity” value read?
Answer: inactive: 14.2%

Question: Which “activity change, negative = cytotoxicity” value does the source give for `COc1ccc(NC(=O)c2cc(-c3ccco3)on2)c(OC)c1` here?
Answer: inactive: 9.38%

Question: Which “activity change, negative = cytotoxicity” value does the source give for `O=C(Nc1nc2ccsc2c(=O)s1)c1ccco1` here?
Answer: inactive: 0.375%

Question: Which “activity change, negative = cytotoxicity” value does the source give for `CCOC(=O)c1sc(NC(=O)c2ccccc2F)c(C(N)=O)c1C` here?
Answer: inactive: 7.14%
